{
  "source": "paper PMC10603992",
  "about": "“Antimicrobial and Adjuvant Potencies of Di-n-alkyl Substituted Diazalariat Ethers” (Antibiotics, 2023)",
  "experiment": "Complexation of antimicrobials by C12LE (NMR extraction)",
  "type": "physicochemical",
  "conditions": "CHCl3/CDCl3, (drug:C12LE), average of at least three experiments",
  "data": [
    {"compound": "O=C(O)c1cn(C2CC2)c2cc(N3CCNCC3)c(F)cc2c1=O", "note": "[Ciprofloxacin, ciprofloxacin]", "values": [
      {"measurement": "Complexation ratio with C12LE", "result": 2.8}
    ]}
  ]
}
